{"source": "patent US9393290B2", "about": "“Combination therapy for treatment of patients with neurological disorders and cerebral infarction” (MOLEAC PTE. LTD., priority 2008, dated 2016)", "origin": "cited, not measured here", "tested_on": "stroke patients", "settings": "cited from earlier work", "note": "At least one structure is not confirmed: it was looked up by name or label, or the drawing left a doubt.", "data": [{"molecule": "C[N+](C)(C)CCOP(=O)(O)OP(=O)([O-])OC[C@H]1O[C@@H](n2ccc(N)nc2=O)[C@H](O)[C@@H]1O", "note": "[Citicoline, cytidine-5′-diphosphocholine]", "values": [{"measurement": "complete recovery", "setting": "at 3 months, Davalos et al. 2002", "result": "improve complete recovery"}, {"measurement": "functional outcome (Barthel Index, Rankin scale), NIH stroke scale, Mini Mental Status Examination versus placebo", "setting": "clinical stroke trials", "result": "significant difference between the groups, favoring citicoline treatment"}]}]}
